No constants are given. Whether binding was seen depends on the method and setting. Binding seen in cells or lysates may run through a third protein. Some results given as binding are weak or reduced against the parent protein; the word gives no strength.
What was measured:
[1] = biological target: Itk, endogenous in murine thymocytes (mouse (endogenous in thymocytes)) (UniProt Q03526); test: co-IP; thymocytes of SH2D2A+/+ mice without CXCL12 stimulation; immunoprecipitation with anti-Itk antibody
[2] = biological target: Itk, endogenous in murine thymocytes (mouse (endogenous in thymocytes)) (UniProt Q03526); test: co-IP; thymocytes of SH2D2A+/+ mice stimulated with 100 ng/ml CXCL12 for 2 minutes; immunoprecipitation with anti-Itk antibody, blots with anti-Lck, anti-Zap70 and anti-mTSAd

The chains behind the UniProt entries cited, without tags or fusion partners.
UniProt Q03526: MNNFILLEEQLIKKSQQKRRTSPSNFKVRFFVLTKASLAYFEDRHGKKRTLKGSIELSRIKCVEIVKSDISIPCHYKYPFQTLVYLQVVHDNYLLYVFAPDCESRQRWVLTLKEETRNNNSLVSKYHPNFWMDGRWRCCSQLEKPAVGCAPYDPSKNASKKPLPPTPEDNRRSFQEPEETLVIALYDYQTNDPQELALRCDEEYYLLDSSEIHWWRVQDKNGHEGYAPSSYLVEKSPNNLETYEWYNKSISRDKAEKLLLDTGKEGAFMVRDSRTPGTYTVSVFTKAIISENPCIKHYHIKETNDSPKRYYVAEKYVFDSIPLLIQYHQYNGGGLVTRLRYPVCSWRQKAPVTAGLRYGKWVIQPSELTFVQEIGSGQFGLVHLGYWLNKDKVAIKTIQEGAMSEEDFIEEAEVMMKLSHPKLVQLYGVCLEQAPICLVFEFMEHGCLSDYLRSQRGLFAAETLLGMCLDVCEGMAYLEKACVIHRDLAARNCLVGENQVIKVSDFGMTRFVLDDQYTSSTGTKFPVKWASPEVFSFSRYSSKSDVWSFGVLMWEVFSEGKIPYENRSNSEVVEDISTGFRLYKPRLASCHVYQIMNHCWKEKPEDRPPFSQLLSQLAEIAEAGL

B1: murine TSAd, endogenous in thymocytes (protein, UniProt Q9QXK9 1-374)
chain: MEFCLAQPCPQGNHEATSSTFNTFQPMNLTQGRCQNLSCGSRPSMQVMKEQGVQLSPRTNHTVVSASAPGTAWVLGNADRAEEVPGKGDLSLQAETRAWVQKTQAHWLLLKTAPLWFHGFITRREAERLLQPQPLGCYLVRFSESAVTFVLSYRSQTCCRHFLLAQLGDGRHVVLGEDSAHAQLQDLLEHYTECPLSPYGEILTQPLARQTAEPAGLSLRADSDSGSKRQDPDTQLSLLLQQGQAQASGHTEKVWASQQKATSQASRPRPPIPAKPQLPPEVYTSPASRLHQAPPINPIYQEPDEPIAFYAMGRGSPGDAPSNIYAEVEGPSGTAPIGHPILRKCWSRPISRGQVREVQGKISSRSRAERGSPS
For B1, the binding [1] was “no binding (condition: without CXCL12 stimulation)” and the binding [2] was “binds”.

Reference: paper PMC2841202
